Record: PubChem BioAssay AID504791 (Drosophila RNAi Screening Center, 2011)
In all, the deposit lists about 23,000 reagents; this is a random part of those that have a named target and a result. Over the whole deposit, 199 (0.86%) were called active. 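Plate-scaled ratios behind the calls are not deposited; printed light signals are raw; many rows marked increased or decreased are still called inactive.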 A number with no mark means an inactive call. Not stated in the record: the direction of the score.

Screen: 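Genes of the fly required for silencing by miRNA, siRNA or endo-siRNA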 (primary screen)
Cells: Drosophila S2-derived reporter cells
Knock-down reagent: long dsRNA against Drosophila genes, about 150-250 ng dsRNA per well (siRNA assay); about 80-120 ng (miRNA assay)
Duration: about 5 days (siRNA assay); about 4 days (miRNA assay)
Challenge: copper sulfate induction of reporters: 25 µM (siRNA assay); 200 mM stated (miRNA assay), 1-2 days before reading
Measurement: 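Dual luciferase assay: Renilla to firefly signal ratio in each well, scaled to the mean ratio of its plate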
Units: stable assay Renilla, run 1 in luminescence; stable assay firefly, run 1 in luminescence
Rule for the call: 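a well was a first-pass pick when its plate-scaled ratio rose above 1.5 (siRNA assay) or 1.6 (miRNA assay), or dropped below 0.6; a gene counted only if two separate dsRNAs agreed on retest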

gene	dsRNA	stable siRNA reporter change	miRNA reporter change	stable assay Renilla, run 1	stable assay firefly, run 1
CG32445	DRSC11678			7491	3.59e5
CG12134	DRSC06109			6422	4.69e5
frm	DRSC09753			3004	1.97e5
rasp	DRSC08191			6630	3.94e5
Fdx2	DRSC08306			6450	4.14e5
CCHa2	DRSC14835			4123	4.27e5
sba	DRSC13643			3783	2.59e5
sba	DRSC17050			3251	3.06e5
bves	DRSC20520			5282	3.64e5
bves	DRSC20554			5507	3.53e5
bves	DRSC20555			5071	3.94e5
CG14752	DRSC06488			6968	3.66e5
CG14459	DRSC11719	reporter ratio raised past the hit cutoff		7168	2.27e5
CG14459	DRSC23039			5068	3.65e5
Mfe2	DRSC19869			7940	4.34e5
CG5498	DRSC11608			6474	2.76e5
Rop	DRSC08693			7215	4.00e5
Cyp6a19	DRSC07379			8821	4.41e5
CG3225	DRSC00578			11386	1.83e5
CG5078	DRSC11762			8208	3.61e5
CG15822	DRSC08482			5816	3.07e5
CG15822	DRSC08483			5443	3.00e5
CG13461	DRSC10008			6780	2.54e5
CG15358	DRSC00388			7946	4.36e5
Tengl3	DRSC22288			9913	6.91e5
CG13398	DRSC02268			7182	3.37e5
Cyp1	DRSC20234			8656	6.15e5
ATP6 (retired record)	DRSC21278			5672	4.49e5
nbs	DRSC11373			5731	3.63e5
CG4133	DRSC00639			5786	2.36e5
CG4133	DRSC23122			5683	3.80e5
PRL-1	DRSC03393			6616	4.23e5
Cep164	DRSC20163		reporter ratio raised past the hit cutoff	5851	3.20e5
ACXB	DRSC00845			6958	3.08e5

Sorted by “stable assay firefly, run 1” (descending): some entries from above.
gene	dsRNA	stable siRNA reporter change	miRNA reporter change	stable assay Renilla, run 1	stable assay firefly, run 1
CG15358	DRSC00388			7946	4.36e5
CG15822	DRSC08483			5443	3.00e5
CG13461	DRSC10008			6780	2.54e5
